For at least one compound, name, drawing or mass did not settle the structure. Some entries share one result that the patent states for a list of compounds.
Assays:
[1] = test system: SCC-15 human head and neck cancer cells; experiment: Growth assay of SCC-15 cells, cell number counted; assay type: cell-based; settings: day 7; TSA 8 ng/ml, 1 μM retinoic acid, 1 μM retinol; drugs added only at time 0
Procedure: (§1) Data was plotted using Prism 3.0.
Cells were treated as indicated. Drugs were added only at time 0. Cell number was counted on days 0, 3, 5, and 7.
Cell number was counted on days 0, 3, 5, and 7. In this experiment, a low dose of TSA (8 ng/ml) was used alone or in combination with 1 μM retinoic acid or 1 μM retinol. Drugs were added only at time 0.

[2] = test system: SK-RC-39 human renal carcinoma cells; experiment: Growth assay of SK-RC-39 cells, cell number counted; assay type: cell-based
Procedure: as §1
The cells were counted at day 7. A small amount of ethanol was added to the control cells, as a vehicle and solvent for the retinoic acid.
Culture conditions were as shown. […] The term EtOH indicates the control cells, treated with a very low amount of ethanol, the same amount used to dissolve retinoic acid.

For `CC(/C=C/C(=O)NO)=C\[C@@H](C)C(=O)c1ccc(N(C)C)cc1` [TSA, trichostatin A], the “inhibition of cell growth (FIG. 19)” value [1] was 35-40% and the “inhibition of cell growth, high dose TSA (FIG. 9)” value ([2]; cells counted on day 7, high dose TSA) was “greater than 90%”.
In the case of `CC1=C(/C=C/C(C)=C/C=C/C(C)=C/C(=O)O)C(C)(C)CCC1` [retinoic acid, 3, 7 dimethyl-9-(2,6,6-trimethyl-1-cyclohenen-1-yl)-2,4,6,8,-nonatetraenoic acid], the “inhibition of cell growth (FIG. 6)” value ([2]; cells counted at day 7, retinoic acid, low dose TSA) is reported as “little growth inhibitory activity” and the “inhibition of cell growth (FIG. 9)” value ([2]; cells counted on day 7, 1 μM retinoic acid, low dose TSA) is reported as “did not inhibit cell growth”.
